Library screening results

Chains of the proteins cited; added tags and fusions are not shown.
UniProt E9BF75, entry or part of it: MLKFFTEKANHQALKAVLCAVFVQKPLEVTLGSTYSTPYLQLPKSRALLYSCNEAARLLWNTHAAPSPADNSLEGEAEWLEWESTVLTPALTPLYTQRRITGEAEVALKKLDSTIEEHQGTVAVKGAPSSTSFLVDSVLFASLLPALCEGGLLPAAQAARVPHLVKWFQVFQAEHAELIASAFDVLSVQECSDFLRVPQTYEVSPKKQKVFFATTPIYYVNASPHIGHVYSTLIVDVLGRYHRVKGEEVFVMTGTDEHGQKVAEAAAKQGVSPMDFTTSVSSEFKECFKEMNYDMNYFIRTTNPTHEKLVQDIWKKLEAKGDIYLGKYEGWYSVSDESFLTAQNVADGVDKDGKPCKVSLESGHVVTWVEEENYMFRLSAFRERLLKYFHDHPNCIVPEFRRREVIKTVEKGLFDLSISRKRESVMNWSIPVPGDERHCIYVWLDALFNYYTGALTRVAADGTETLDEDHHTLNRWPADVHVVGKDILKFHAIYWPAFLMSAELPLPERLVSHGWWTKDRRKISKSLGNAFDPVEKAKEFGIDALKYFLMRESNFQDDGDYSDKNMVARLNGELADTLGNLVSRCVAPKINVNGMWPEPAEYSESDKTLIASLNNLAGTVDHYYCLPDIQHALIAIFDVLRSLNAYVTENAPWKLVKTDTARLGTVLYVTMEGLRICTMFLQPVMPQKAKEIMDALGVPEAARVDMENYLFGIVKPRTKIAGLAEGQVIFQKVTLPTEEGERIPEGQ

Measurements from “University of Dundee, Small-Polar-MMV Screening Library” (2021), ChEMBL document CHEMBL3988442.

All values are in %.
The controls that fix the scale are not given in the record; negative values are as filed.
This is an unselected part of the compounds tested.

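Methionyl-tRNA synthetase (putative), Leishmania donovani (UniProt E9BF75). Primary screen of methionyl-tRNA synthetase; the read-out is not stated. The test concentration is not given. The values are filed as inhibition. Of about 68,000 compounds tested this way, about 24 (0.035%) reached 50% or more in at least one test.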

| compound | Inhibition |
|---|---|
| `CCC1=N[C@@]2(CC[C@@H]3CN(S(=O)(=O)CC)C[C@@H]32)C(=O)N1CC` | 12.77 |
| `COC(=O)CCN(C)C(=O)c1csc(Cc2ccccc2F)n1` | 13.97 |
| `Cc1ccc(CN(C)Cc2ncc(C(C)(C)C)o2)o1` | 10.6 |
| `Cc1nn(C)c(Cl)c1C(=O)NCc1cccnc1N1CCOCC1` | 18.4 |
| `Cn1cc(C2CCCN2Cc2cscn2)cn1` (stereo unspecified) | 11.55 |
| `O=C(COC1CCCC1)NS(=O)(=O)c1ccc2c(c1)OCCCO2` | 12 |
| `CCn1ncnc1C(C)Nc1cc(C2CCNCC2)nc(C)n1` (stereo unspecified) | 1.858 |
| `Cn1ccnc1C(O)(CCNCc1ccco1)C(F)(F)F` (stereo unspecified) | 4.188 |
| `CSCCN1CCC(NC(=O)OC(C)(C)C)CC1` | -1.804 |
| `COc1cccc(CC(=O)N2CCC(O)(C(F)(F)F)C2)c1` (stereo unspecified) | 14.4 |
| `Cc1nn(C)c(C)c1CNCc1ccc(N2CCOCC2)nc1` | 14.58 |
| `c1ccc(Sc2ccc3c(c2)OCO3)c(CNC2=NCCN2)c1` | 16.32 |
| `Cc1ncsc1C(=O)NCC1CCC2(CCNCC2)CO1` (stereo unspecified) | 5.435 |
| `CCc1nnsc1C(=O)N1CCCN(Cc2ccc(C)cc2)CC1` | 9.966 |
| `Cc1cccc(C(=O)N2CCCC(c3nccn3Cc3cscn3)C2)n1` (stereo unspecified) | 18.06 |
| `CN(C)C(=O)CN1CCN(C(=O)Cc2csc(-c3ncccn3)n2)CC1` | 19.39 |
| `Cc1cnc(C(=O)N2CCC(COCc3ccccc3)C2)cn1` (stereo unspecified) | 7.013 |
| `CC(C)N(C)Cc1nnc2n1CCCN(c1cnccn1)C2` | 16.94 |
| `Cn1ncc2c(N3CCN(CCO)CC3)nc(C3CCCC3)nc21` | 8.065 |
| `CN(C)C(=O)c1cccc(C2CNCCN2C)c1` (stereo unspecified) | 14.33 |
| `O=C(C1CCC1)N1C[C@@H](c2ccsc2)[C@@H]2CN(C3CCCCC3)CC[C@@H]21` | 9.494 |
| `CN(C)CCNC(=O)c1ccc(OC2CCN(CC3CC3)CC2)c(Cl)c1` | 12.81 |
| `CNc1ccc(CC2CCCN(C(=O)c3cncnc3C)C2)nn1` (stereo unspecified) | 12.94 |
| `CCN(CC(F)(F)F)C(=O)C1CCCN(Cc2nc(C)c(C)o2)C1` (stereo unspecified) | 13.94 |
| `COc1ccc(NC(=O)CCSc2ccc3nncn3n2)c(OC)c1` | 14.4 |
| `Cn1cc(CCC(=O)NCc2ccccc2OC(C)(C)C)cn1` | 9.164 |
| `Cc1ccccc1OCCN1CCN(Cc2cnn(CCO)c2)CC1` | 14.29 |
| `CN(CCc1cccs1)C(=O)Nc1ccc2c(c1)C(=O)N(C)CC2` | 8.383 |
| `O=C(C1CC1)N1CCC[C@]2(C[C@@H](OCc3ccncc3)CO2)C1` | 7.492 |
| `Cc1nnc(N2CCN(C)C3(CCC(=O)N(CCO)CC3)C2)s1` (stereo unspecified) | 7.453 |
| `COCC1CC2(CCN(C(=O)c3ccc(C)nc3)CC2)CO1` (stereo unspecified) | 13.7 |
| `COCCC(=O)N[C@H]1CC[C@H](Nc2nccc(-c3ccncc3)n2)C1` | 14.66 |
| `CC(=O)N1CCC[C@@H](NCc2c[nH]c3ccccc23)[C@@H]1c1ccc(C)s1` | 19.35 |
| `CO[C@@H]1CC[C@H]2[C@H]1OCCN2C(=O)C1CCOCC1` | 21.04 |
| `CN(C)CC1CN(C(=O)Cc2ccccc2)Cc2nccn2C1` (stereo unspecified) | 14.11 |
| `Fc1ccc(OCC2CCCO2)c(NCc2noc(C3CC3)n2)c1` (stereo unspecified) | 7.609 |
| `O=S(=O)(c1cccc(F)c1)N1C[C@@H]2COC[C@]2(COCC2CC2)C1` | 4.498 |
| `COc1cccc2c1CCN(C(=O)NCCc1nccn1C)C2` | 0.8219 |
| `Cc1nn(-c2ccccc2Cl)c(C)c1CCC(=O)O` | 6.389 |
| `CS(=O)(=O)N1CCCC(Cc2cncc(Br)c2)CC1` (stereo unspecified) | 22.6 |
| `COC(=O)CSCc1noc(-c2ccc(C)cc2)n1` | 5.74 |
| `Cn1cnc2c1CCN(Cc1cccc(C(=O)N3CCCCC3)c1)C2` | 13.68 |
| `CC1c2ncc(Cn3cncn3)n2CCN1C(=O)c1ccccn1` (stereo unspecified) | 6.301 |
| `Cc1nnsc1C(=O)N(C)Cc1nc(-c2ccccn2)no1` | 13.7 |
| `OC1(CN(Cc2cccnc2)C2CCCCC2)CNCCOC1` (stereo unspecified) | 23.36 |
| `Cc1nnc([C@@H]2CC[C@@H]3[C@@H](CCN3S(C)(=O)=O)O2)o1` | 7.302 |
| `O=C(N1CCc2ccccc2CC1)C1(O)Cc2ccccc2C1` | 14.76 |
| `C/N=C1\c2cc3cc(OC)ccc3n2CCN1Cc1ccccc1` | 25.07 |
| `CCN(CC)CCn1cnc(-c2ccccc2)c1-c1cnn(CC)c1` | 10.05 |
| `CN1CC(C(=O)NCc2ccc(OCc3cccnc3)cc2)CC1=O` (stereo unspecified) | 12.77 |
| `CCCN1CCC(c2nc3ccc(NCc4cccnc4)cn3n2)CC1` | 13.45 |
| `COc1ncccc1CNC(=O)N1CCC(CN2CCOCC2)CC1` | 3.957 |
| `Cc1cc(C)c2c(c1)NC(=O)C2CC(=O)O` (stereo unspecified) | 8.065 |
| `NCCC(=O)N1CCC2(CC1)CN(C(=O)c1ccc(Cl)cc1)CCO2` | 8.571 |
| `Cc1cccc(CO[C@@H]2C[C@H]3CN(C(=O)c4cnccn4)CCN3C2)n1` | 2.688 |
| `O=c1cc(N2CCNCC2)cnn1CCc1ccc(F)cc1` | 20.14 |
| `CC(Cn1ccnc1)NC(=O)NCCc1ccc2c(c1)OCCO2` (stereo unspecified) | 2.024 |
| `Cc1nccn1-c1nccnc1C1CCCN(C2CCCC2)C1` (stereo unspecified) | -2.907 |
| `COCCN(Cc1cnn(C)c1)c1nc2c(s1)c(C)nn2C` | 13.94 |
| `Cc1occc1CNC(=O)C1(C)CCCN1C(=O)c1ccccc1` (stereo unspecified) | 18.55 |
| `CC(Cn1cccn1)NC(=O)Nc1ccc(N(C)C)nc1` (stereo unspecified) | 1.77 |
| `Cc1ncsc1CN(Cc1ccccc1)Cc1ncc[nH]1` | 4.587 |
| `Cn1ncc2c(NCCn3cccc3)nc(C3CCCC3)nc21` | 18.44 |
| `CCOC(=O)CCC(=O)NC(C)c1ccc(NC(=O)CC)cc1` (stereo unspecified) | 4.225 |
| `O=C(C1CC(=O)N(c2n[nH]c3cc(Br)ccc23)C1)N1CCOCC1` (stereo unspecified) | 21.2 |
| `Cc1ccc(-c2nc(CCNCc3ccncc3)co2)cc1` | 13.47 |
| `C=C(C)CN(CC)Cc1nc(CC)no1` | 8.014 |
| `Cc1cc(C(=O)NCC(=O)N2CCOCC2)nn1C(C)(C)C` | 10.53 |
| `COCCO[C@@H]1C[C@H]2CN(C(=O)c3cccnc3)CCN2C1` | 10.22 |
| `COc1ccc(OCCc2nnc(NC(C)=O)s2)cc1` | -0.7538 |
| `CCCOc1cc(C)ccc1NC(=O)N(C)C` | 12.16 |
| `CNC(=O)[C@@H]1[C@H]2CNCCN2C[C@H]1c1ccccc1` | 7.397 |
| `CN(CC(=O)N1CCCC(n2ccnc2)C1)c1cnccn1` (stereo unspecified) | 6.383 |
| `Cc1cnn(CC2CCCN2C(=O)c2cn(C)c3ccccc23)c1` (stereo unspecified) | 16.57 |
| `CC(C)(C)N1CC(C(=O)NCc2nc(C3CCCCC3)no2)CC1=O` (stereo unspecified) | 10.78 |
| `O=C(NCCN1CCCCC1)c1nc(-c2ccc3cc[nH]c3c2)no1` | 13.69 |
| `Cc1n[nH]c(SCC(=O)NC(c2ccccn2)C(C)C)n1` (stereo unspecified) | 15.97 |
| `CCN1CCCN(C(=O)c2ccc(NC(=O)CC(C)C)c(C)c2)CC1` | 10.42 |
| `CSc1nccc(N2CCN(C)C3(CCC(=O)N(CC4CC4)CC3)C2)n1` (stereo unspecified) | 0.5587 |
| `CCn1c(SC)nnc1C1CCN(C(=O)N2CCCC2)CC1` | 15.58 |
| `CC(C)N1[C@@H](C(=O)NCC2CC2)C[C@@H]2CN(Cc3ccco3)C[C@@H]21` | 6.09 |
| `CCN1C[C@H]2C[C@H](C(=O)NCc3cccnc3)[C@@H](C1)O2` | 4.377 |
| `Cc1ncc(-c2ccnc(N3CC[C@H](O)C3)n2)c(-c2cccnc2)n1` | 17.72 |
| `CCOc1ccccc1C(=O)NCCc1ccoc1` | 19.88 |
| `Cn1ncc(N2CCC(CNC(=O)[C@@H](N)C3CCCCC3)CC2)cc1=O` | 7.092 |
| `O=C(O)c1nc(SCc2ccc(F)cc2)ncc1Br` | 14.91 |
| `Fc1ccc(CN2CCO[C@H]3[C@H](OCc4ccncc4)CC[C@@H]32)cc1` | 13.95 |
| `COc1cccc(CCCn2cnnc2[S+](C)[O-])c1` (stereo unspecified) | 15.28 |
| `Cc1ccc(S(=O)(=O)NC(=O)COc2cccc(C#N)c2)c(C)c1` | -3.073 |
| `CC(NC(=O)Nc1nnc(-c2ccccn2)s1)C(=O)OC(C)(C)C` (stereo unspecified) | 17.71 |

For reference, 7 entries once more:

compound,Inhibition
CNC(=O)[C@@H]1[C@H]2CNCCN2C[C@H]1c1ccccc1,7.397
O=C(C1CC(=O)N(c2n[nH]c3cc(Br)ccc23)C1)N1CCOCC1 (stereo unspecified),21.2
O=c1cc(N2CCNCC2)cnn1CCc1ccc(F)cc1,20.14
CCn1ncnc1C(C)Nc1cc(C2CCNCC2)nc(C)n1 (stereo unspecified),1.858
CCCN1CCC(c2nc3ccc(NCc4cccnc4)cn3n2)CC1,13.45
O=C(COC1CCCC1)NS(=O)(=O)c1ccc2c(c1)OCCCO2,12
CO[C@@H]1CC[C@H]2[C@H]1OCCN2C(=O)C1CCOCC1,21.04